According to the supplement of paper PMC8728848:
Some of the results follow.

Columns and labels:
Test in all cases: glycan array binding signal (z-score within array); higher = stronger binding
Conditions in all cases: glycan notation: IUPAC condensed, linker removed
[1] = target: Fuc(a1-3)[Gal(b1-4)]GlcNAc(b1-2)Man(a1-3)[Fuc(a1-3)[Gal(b1-4)]GlcNAc(b1-2)Man(a1-6)]Man(b1-4)GlcNAc(b1-4)[Fuc(a1-6)]GlcNAc
In short: (§1)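 From the Consortium for Functional Glycomics database, 3228 arrays were curated, keeping only those whose protein sequence was available. Binding is given as a within-array Z-score averaged across arrays sharing a protein sequence and across linkers. Negative Z-scores can be read as non-binding.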

[2] = target: Fuc(a1-3)[Gal(b1-4)]GlcNAc(b1-3)Gal(b1-3)[Fuc(a1-4)]GlcNAc
In short: as §1

[3] = target: Fuc(a1-3)[Gal(b1-4)]GlcNAc(b1-3)GalNAc
In short: as §1

[4] = target: Fuc(a1-3)[Gal(b1-4)]GlcNAc(b1-4)Gal(b1-4)[Fuc(a1-3)]GlcNAc
In short: as §1

[5] = target: Fuc(a1-3)[Gal(b1-4)]GlcNAc(b1-4)Gal(b1-4)[Fuc(a1-3)]GlcNAc(b1-4)Gal(b1-4)[Fuc(a1-3)]GlcNAc
In short: as §1

[6] = target: Fuc(a1-3)[Gal(b1-4)]GlcNAc(b1-6)GalNAc
In short: as §1

[7] = target: Fuc(a1-3)[Gal(b1-4)]GlcNAc(b1-6)[Gal(b1-3)GlcNAc(b1-3)]Gal(b1-4)Glc
In short: as §1

[8] = target: Fuc(a1-3)[Gal(b1-4)]GlcNAc(b1-6)[Neu5Ac(a2-3)Gal(b1-3)]GalNAc
In short: as §1

[9] = target: Fuc(a1-3)[Gal(b1-4)]GlcNAc6S
In short: as §1

[10] = target: Fuc(a1-3)[Gal3S(b1-4)]GlcNAc
In short: as §1

[11] = target: Fuc(a1-3)[Gal3S(b1-4)]GlcNAc6S
In short: as §1

[12] = target: Fuc(a1-3)[GalNAc(b1-4)]GlcNAc
In short: as §1

Fuc(a1-4)GlcNAc = target: Fuc(a1-4)GlcNAc
In short: as §1

Fuc(b1-3)GlcNAc = target: Fuc(b1-3)GlcNAc
In short: as §1

Gal(a1-2)Gal = target: Gal(a1-2)Gal
In short: as §1

Gal(a1-3)Gal = target: Gal(a1-3)Gal
In short: as §1

Gal(a1-3)Gal(b1-3)GlcNAc = target: Gal(a1-3)Gal(b1-3)GlcNAc
In short: as §1

[13] = target: Gal(a1-3)Gal(b1-3)GlcNAc(b1-2)Man(a1-3)[Gal(a1-3)Gal(b1-3)GlcNAc(b1-2)Man(a1-6)]Man(b1-4)GlcNAc(b1-4)GlcNAc
In short: as §1

[14] = target: Gal(a1-3)Gal(b1-3)GlcNAc(b1-3)GalNAc
In short: as §1

[15] = target: Gal(a1-3)Gal(b1-3)[Fuc(a1-4)]GlcNAc(b1-2)Man(a1-3)[Gal(a1-3)Gal(b1-3)[Fuc(a1-4)]GlcNAc(b1-2)Man(a1-6)]Man(b1-4)GlcNAc(b1-4)GlcNAc
In short: as §1

Gal(a1-3)Gal(b1-4)Glc = target: Gal(a1-3)Gal(b1-4)Glc
In short: as §1

Gal(a1-3)Gal(b1-4)GlcNAc = target: Gal(a1-3)Gal(b1-4)GlcNAc
In short: as §1

[16] = target: Gal(a1-3)Gal(b1-4)GlcNAc(b1-3)GalNAc
In short: as §1

[17] = target: Gal(a1-3)Gal(b1-4)[Fuc(a1-3)]GlcNAc
In short: as §1

[18] = target: Gal(a1-3)Gal(b1-4)[Fuc(a1-3)]GlcNAc(b1-2)Man(a1-3)[Gal(a1-3)Gal(b1-4)[Fuc(a1-3)]GlcNAc(b1-2)Man(a1-6)]Man(b1-4)GlcNAc(b1-4)GlcNAc
In short: as §1

Gal(a1-3)GalNAc = target: Gal(a1-3)GalNAc
In short: as §1

[19] = target: Gal(a1-3)[Gal(a1-4)]Gal(b1-4)GlcNAc
In short: as §1

[20] = target: Gal(a1-4)Gal(b1-3)GlcNAc(b1-2)Man(a1-3)[Gal(a1-4)Gal(b1-3)GlcNAc(b1-2)Man(a1-6)]Man(b1-4)GlcNAc(b1-4)GlcNAc
In short: as §1

Gal(a1-4)Gal(b1-4)Glc = target: Gal(a1-4)Gal(b1-4)Glc
In short: as §1

Gal(a1-4)Gal(b1-4)GlcNAc = target: Gal(a1-4)Gal(b1-4)GlcNAc
In short: as §1

[21] = target: Gal(a1-4)Gal(b1-4)GlcNAc(b1-2)Man(a1-3)[Gal(a1-4)Gal(b1-4)GlcNAc(b1-2)Man(a1-6)]Man(b1-4)GlcNAc(b1-4)GlcNAc
In short: as §1

[22] = target: Gal(a1-4)Gal(b1-4)GlcNAc(b1-3)Gal(b1-4)Glc
In short: as §1

Gal(a1-4)GlcNAc = target: Gal(a1-4)GlcNAc
In short: as §1

Gal(a1-6)Glc = target: Gal(a1-6)Glc
In short: as §1

Gal(b1-2)Gal = target: Gal(b1-2)Gal
In short: as §1

Gal(b1-3)Gal = target: Gal(b1-3)Gal
In short: as §1

Gal(b1-3)Gal(b1-4)GlcNAc = target: Gal(b1-3)Gal(b1-4)GlcNAc
In short: as §1

B1: DCL-1 (Homo sapiens), Q8IX05 (protein)
chain: MLRAALPALLLPLLGLAAAAVADCPSSTWIQFQDSCYIFLQEAIKVESIEDVRNQCTDHGADMISIHNEEENAFILDTLKKQWKGPDDILLGMFYDTDDASFKWFDNSNMTFDKWTDQDDDEDLVDTCAFLHIKTGEWKKGNCEVSSVEGTLCKTAIPYKRKYLSDNHILISALVIASTVILTVLGAIIWFLYKKHSDSRFTTVFSTAPQSPYNEDCVLVVGEENEYPVQFD
glycan array binding signal (z-score) [1]: -0.02 | glycan array binding signal (z-score) [2]: -0.443 | glycan array binding signal (z-score) [3]: -0.476 | glycan array binding signal (z-score) [4]: 1.97 | glycan array binding signal (z-score) [5]: -0.891 | glycan array binding signal (z-score) [6]: 1.77 | glycan array binding signal (z-score) [7]: -0.76 | glycan array binding signal (z-score) [8]: 0.063 | glycan array binding signal (z-score) [9]: 0.525 | glycan array binding signal (z-score) [10]: 0.188 | glycan array binding signal (z-score) [11]: -0.491 | glycan array binding signal (z-score) [12]: -0.238 | glycan array binding signal (z-score) (Fuc(a1-4)GlcNAc): -0.138 | glycan array binding signal (z-score) (Fuc(b1-3)GlcNAc): -0.644 | glycan array binding signal (z-score) (Gal(a1-2)Gal): -0.68 | glycan array binding signal (z-score) (Gal(a1-3)Gal): 0.515 | glycan array binding signal (z-score) (Gal(a1-3)Gal(b1-3)GlcNAc): -0.767 | glycan array binding signal (z-score) [13]: 0.204 | glycan array binding signal (z-score) [14]: -0.409 | glycan array binding signal (z-score) [15]: 0.312 | glycan array binding signal (z-score) (Gal(a1-3)Gal(b1-4)Glc): -0.606 | glycan array binding signal (z-score) (Gal(a1-3)Gal(b1-4)GlcNAc): 0.709 | glycan array binding signal (z-score) [16]: -0.261 | glycan array binding signal (z-score) [17]: 0.29 | glycan array binding signal (z-score) [18]: 0.472 | glycan array binding signal (z-score) (Gal(a1-3)GalNAc): -0.867 | glycan array binding signal (z-score) [19]: -0.245 | glycan array binding signal (z-score) [20]: -0.546 | glycan array binding signal (z-score) (Gal(a1-4)Gal(b1-4)Glc): -0.289 | glycan array binding signal (z-score) (Gal(a1-4)Gal(b1-4)GlcNAc): 0.053 | glycan array binding signal (z-score) [21]: 0.895 | glycan array binding signal (z-score) [22]: -0.496 | glycan array binding signal (z-score) (Gal(a1-4)GlcNAc): -0.114 | glycan array binding signal (z-score) (Gal(a1-6)Glc): -0.097 | glycan array binding signal (z-score) (Gal(b1-2)Gal): -0.585 | glycan array binding signal (z-score) (Gal(b1-3)Gal): -1.1 | glycan array binding signal (z-score) (Gal(b1-3)Gal(b1-4)GlcNAc): -1.41
